No constants are given. Whether binding was seen depends on the method and setting. In cells and extracts the contact can be indirect. Some results given as binding are weak or reduced against the parent protein; the word gives no strength.

By UniProt entry, the sequences of proteins in these tests, tags left out.
UniProt Q93034: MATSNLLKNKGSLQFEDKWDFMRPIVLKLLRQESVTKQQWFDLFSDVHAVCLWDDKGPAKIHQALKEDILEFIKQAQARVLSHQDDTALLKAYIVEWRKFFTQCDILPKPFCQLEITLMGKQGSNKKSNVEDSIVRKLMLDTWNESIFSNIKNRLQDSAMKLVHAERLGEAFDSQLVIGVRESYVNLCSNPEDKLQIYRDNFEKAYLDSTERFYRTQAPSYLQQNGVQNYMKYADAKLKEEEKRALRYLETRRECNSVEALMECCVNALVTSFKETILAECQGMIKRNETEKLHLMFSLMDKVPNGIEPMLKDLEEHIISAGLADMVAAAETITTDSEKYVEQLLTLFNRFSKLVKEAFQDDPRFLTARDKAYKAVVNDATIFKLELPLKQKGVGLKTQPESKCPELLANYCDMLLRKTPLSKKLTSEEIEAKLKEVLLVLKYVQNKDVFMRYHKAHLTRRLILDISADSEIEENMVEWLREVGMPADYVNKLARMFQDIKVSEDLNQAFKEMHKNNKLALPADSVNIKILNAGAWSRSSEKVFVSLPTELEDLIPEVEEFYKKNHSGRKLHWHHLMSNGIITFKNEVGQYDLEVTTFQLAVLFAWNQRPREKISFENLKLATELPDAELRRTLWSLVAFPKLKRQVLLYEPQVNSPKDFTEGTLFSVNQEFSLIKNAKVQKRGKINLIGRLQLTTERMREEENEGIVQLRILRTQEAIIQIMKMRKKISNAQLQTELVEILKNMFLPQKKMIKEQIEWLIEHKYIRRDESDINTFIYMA
UniProt Q9UBF6: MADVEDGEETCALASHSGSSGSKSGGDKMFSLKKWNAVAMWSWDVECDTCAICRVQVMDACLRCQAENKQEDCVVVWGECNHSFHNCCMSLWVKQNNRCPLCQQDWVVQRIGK

In this experiment the target is 3xFlag-tagged CUL5 (UniProt Q93034). As to the kind of experiment: co-IP; FLAG beads loaded with 5 mg lysate of iPSC-derived neurons overexpressing CUL5-3xFlag or GFP-FLAG; 20 mM HEPES NaOH pH 7.4, 150 mM NaCl, 0.2% NP40; 4 °C, 2 hours; eluate blotted.

As to RNF7 (from UniProt Q9UBF6 1-113), the binding entry is given as “binds”.

Source of the values: paper doi:10.1101/2023.06.16.545386.
